# Some of these results come from one statement about several compounds together.
# Experiment: Comparative dissolution with cyclodextrin formulation (FIG. 4)
# Assay type: physicochemical
# Conditions: 15 minutes
# Text: Compositions according to the invention using cyclodextrins have also shown similarly beneficial results. The improved solubility of the inventive compositions comprising an antifolate compound and a cyclodextrin is illustrated in FIG. 4, wherein the comparative dissolution of an antifolate compound is again given as a percent dissolution as a function of time. The antifolate compound was again tested in the diacid form (denoted as “Free acid”), in the sodium salt form (denoted as “Disodium salt”), and as the sodium salt form in a pharmaceutical composition according to the invention including a cyclodextrin (denoted as “Cyclodextrin formulation”). […] The inventive formulation approached 100% dissolution within 30 minutes. After 45 minutes, the salt alone and the diacid alone achieved only about 70% dissolution and about 45% dissolution, respectively.
smiles,measurement,value
"C=C(CC(NC(=O)c1ccc(CCc2ccc3nc(N)nc(N)c3c2)cc1)C(=O)O)C(=O)O (racemic) [CH-1504, 2-{4-[2-(2,4-diamino-quinazolin-6-yl)-ethyl]-benzoylamino}-4-methylene-pentanedioic acid]",percent dissolution,30-35%
